Assay results published in the supplement of paper PMC10849652.
The list shows a part of the results.

The chains behind the UniProt entries cited, without tags or fusion partners. Where a name states a change or a piece, a line headed by the entry shows the natural chain unless it says otherwise.
UniProt Q9UJJ9: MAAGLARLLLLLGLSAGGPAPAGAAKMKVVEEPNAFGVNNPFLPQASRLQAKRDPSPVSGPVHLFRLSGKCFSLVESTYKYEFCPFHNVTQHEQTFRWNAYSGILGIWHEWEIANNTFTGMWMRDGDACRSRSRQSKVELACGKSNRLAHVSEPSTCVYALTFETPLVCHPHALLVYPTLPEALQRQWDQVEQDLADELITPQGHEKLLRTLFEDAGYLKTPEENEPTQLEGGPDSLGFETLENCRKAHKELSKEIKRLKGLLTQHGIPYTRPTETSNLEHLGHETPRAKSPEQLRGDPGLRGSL
UniProt Q9BYB4: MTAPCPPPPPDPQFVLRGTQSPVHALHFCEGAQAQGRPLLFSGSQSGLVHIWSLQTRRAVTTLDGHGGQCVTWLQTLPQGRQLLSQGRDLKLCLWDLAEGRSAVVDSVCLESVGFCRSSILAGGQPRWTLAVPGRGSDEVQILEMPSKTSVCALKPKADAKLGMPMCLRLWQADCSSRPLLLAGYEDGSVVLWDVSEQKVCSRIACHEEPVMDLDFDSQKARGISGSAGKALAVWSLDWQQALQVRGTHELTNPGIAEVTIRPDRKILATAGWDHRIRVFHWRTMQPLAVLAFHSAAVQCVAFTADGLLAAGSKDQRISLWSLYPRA
UniProt P62879, whole entry, looked up: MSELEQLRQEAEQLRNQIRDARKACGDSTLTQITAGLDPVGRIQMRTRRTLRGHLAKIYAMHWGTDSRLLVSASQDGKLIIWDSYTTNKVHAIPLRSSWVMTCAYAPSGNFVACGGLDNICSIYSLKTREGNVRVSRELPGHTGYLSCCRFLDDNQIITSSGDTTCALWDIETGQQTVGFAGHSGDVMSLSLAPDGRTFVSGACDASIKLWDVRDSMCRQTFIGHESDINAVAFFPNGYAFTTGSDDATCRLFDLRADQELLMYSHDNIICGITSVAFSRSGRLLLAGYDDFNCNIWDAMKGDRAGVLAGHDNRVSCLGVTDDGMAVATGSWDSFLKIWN
UniProt Q8N335: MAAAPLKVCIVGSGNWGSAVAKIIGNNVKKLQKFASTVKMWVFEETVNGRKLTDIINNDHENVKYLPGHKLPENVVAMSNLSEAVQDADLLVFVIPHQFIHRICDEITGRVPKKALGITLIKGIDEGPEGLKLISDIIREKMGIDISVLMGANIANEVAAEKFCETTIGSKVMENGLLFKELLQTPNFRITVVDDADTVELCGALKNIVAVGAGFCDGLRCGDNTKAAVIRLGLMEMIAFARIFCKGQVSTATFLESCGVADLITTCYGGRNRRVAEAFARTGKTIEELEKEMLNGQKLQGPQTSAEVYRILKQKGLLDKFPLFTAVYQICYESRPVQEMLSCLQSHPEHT
UniProt Q9UHW5, whole entry, looked up: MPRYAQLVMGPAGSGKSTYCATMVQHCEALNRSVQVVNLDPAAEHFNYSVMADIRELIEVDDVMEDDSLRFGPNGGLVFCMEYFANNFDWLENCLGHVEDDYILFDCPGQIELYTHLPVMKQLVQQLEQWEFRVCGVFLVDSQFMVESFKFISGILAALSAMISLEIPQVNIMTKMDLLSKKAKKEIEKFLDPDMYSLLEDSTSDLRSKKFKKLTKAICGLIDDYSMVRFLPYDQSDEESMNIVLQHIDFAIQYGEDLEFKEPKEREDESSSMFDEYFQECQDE
UniProt P15586: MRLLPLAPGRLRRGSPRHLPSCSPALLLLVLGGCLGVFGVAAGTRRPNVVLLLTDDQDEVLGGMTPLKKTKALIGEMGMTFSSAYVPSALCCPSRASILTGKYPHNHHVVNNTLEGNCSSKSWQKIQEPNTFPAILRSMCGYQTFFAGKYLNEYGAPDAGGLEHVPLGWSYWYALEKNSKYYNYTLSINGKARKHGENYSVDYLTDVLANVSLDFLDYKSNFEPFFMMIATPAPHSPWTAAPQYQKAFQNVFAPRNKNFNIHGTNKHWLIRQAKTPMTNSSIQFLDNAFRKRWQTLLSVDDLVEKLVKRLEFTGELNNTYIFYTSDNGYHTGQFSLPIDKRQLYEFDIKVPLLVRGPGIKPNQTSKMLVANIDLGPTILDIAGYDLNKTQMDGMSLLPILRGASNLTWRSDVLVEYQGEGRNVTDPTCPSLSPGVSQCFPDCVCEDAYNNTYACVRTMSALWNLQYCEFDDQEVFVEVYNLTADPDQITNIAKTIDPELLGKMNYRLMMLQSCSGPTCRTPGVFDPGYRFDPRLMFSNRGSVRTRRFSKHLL
UniProt Q5JWF2, whole entry, looked up: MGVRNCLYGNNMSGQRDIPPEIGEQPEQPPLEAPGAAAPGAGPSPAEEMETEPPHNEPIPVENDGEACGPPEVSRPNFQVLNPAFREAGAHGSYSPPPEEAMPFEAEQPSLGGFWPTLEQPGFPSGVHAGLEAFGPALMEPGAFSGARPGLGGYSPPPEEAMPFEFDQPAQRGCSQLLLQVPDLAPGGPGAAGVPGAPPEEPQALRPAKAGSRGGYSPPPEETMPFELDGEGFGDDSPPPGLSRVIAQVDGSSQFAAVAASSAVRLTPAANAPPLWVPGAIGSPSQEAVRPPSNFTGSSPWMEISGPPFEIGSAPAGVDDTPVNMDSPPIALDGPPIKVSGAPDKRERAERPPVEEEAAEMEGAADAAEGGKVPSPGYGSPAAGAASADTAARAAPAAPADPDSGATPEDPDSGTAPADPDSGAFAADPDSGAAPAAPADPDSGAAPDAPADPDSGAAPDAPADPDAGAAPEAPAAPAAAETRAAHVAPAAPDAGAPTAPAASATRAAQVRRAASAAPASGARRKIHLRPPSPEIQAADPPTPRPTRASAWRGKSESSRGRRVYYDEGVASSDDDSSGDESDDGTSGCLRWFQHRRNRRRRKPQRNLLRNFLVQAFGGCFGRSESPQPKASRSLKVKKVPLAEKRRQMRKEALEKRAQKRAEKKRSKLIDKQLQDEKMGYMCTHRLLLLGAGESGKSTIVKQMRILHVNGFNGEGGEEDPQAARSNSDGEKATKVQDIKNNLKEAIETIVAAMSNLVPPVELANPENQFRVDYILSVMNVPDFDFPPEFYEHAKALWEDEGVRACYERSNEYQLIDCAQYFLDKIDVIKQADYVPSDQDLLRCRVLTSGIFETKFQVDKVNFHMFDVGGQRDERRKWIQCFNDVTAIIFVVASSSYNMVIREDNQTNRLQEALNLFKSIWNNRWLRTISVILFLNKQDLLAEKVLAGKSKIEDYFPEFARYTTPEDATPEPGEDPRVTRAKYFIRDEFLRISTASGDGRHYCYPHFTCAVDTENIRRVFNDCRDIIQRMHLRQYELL
UniProt P13224: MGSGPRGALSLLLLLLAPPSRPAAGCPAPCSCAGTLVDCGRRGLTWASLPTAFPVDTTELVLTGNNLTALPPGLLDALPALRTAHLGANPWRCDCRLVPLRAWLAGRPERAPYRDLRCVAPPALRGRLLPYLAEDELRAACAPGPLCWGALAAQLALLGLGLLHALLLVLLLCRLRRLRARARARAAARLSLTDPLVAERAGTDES
UniProt Q9BXV9: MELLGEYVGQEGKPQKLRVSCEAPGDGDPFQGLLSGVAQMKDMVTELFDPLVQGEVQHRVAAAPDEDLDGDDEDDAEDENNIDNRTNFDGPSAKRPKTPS
UniProt Q9H4A6: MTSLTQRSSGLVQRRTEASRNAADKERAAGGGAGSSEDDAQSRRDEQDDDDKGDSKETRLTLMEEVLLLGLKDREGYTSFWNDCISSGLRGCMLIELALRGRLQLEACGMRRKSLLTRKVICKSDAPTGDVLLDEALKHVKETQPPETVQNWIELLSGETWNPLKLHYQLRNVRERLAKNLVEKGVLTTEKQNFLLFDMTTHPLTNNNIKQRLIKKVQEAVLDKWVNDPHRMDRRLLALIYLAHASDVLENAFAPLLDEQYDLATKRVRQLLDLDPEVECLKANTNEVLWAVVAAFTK
UniProt Q13227: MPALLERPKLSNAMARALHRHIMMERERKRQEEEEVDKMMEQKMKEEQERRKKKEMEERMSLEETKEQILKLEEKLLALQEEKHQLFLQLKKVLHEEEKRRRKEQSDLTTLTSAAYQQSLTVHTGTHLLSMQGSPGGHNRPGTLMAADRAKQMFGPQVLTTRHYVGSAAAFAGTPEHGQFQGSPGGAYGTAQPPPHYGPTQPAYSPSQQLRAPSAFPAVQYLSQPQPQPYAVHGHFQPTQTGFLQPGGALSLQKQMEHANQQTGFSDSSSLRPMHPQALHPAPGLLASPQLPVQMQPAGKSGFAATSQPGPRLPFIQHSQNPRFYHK
UniProt P04899, whole entry, looked up: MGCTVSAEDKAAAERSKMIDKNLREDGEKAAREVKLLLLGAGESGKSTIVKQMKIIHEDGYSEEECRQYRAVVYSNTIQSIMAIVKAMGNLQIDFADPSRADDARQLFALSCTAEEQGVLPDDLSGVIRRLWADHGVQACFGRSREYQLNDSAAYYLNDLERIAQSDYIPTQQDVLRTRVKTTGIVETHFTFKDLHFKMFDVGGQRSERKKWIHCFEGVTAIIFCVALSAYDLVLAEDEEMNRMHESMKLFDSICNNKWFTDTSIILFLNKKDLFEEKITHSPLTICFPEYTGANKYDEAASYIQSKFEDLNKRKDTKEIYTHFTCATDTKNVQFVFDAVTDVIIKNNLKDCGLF
UniProt Q14161: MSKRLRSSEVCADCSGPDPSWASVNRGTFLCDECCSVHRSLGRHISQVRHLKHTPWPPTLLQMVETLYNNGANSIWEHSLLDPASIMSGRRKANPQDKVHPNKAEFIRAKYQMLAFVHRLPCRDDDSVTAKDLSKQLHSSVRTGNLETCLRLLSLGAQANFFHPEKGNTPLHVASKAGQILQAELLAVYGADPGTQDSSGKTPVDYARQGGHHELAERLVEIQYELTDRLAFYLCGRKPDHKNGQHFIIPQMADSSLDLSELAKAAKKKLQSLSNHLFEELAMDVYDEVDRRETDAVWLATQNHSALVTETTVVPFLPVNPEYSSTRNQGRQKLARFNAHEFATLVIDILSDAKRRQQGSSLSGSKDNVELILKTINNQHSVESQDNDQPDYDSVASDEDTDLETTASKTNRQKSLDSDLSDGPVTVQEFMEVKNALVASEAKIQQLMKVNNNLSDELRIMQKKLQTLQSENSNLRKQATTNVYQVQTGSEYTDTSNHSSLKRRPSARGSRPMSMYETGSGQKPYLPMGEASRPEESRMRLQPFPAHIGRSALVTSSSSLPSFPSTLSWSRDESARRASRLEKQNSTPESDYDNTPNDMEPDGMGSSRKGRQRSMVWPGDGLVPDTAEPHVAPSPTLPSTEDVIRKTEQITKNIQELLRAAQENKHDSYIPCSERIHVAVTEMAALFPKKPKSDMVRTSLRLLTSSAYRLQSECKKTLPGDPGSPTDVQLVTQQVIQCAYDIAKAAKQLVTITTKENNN
UniProt Q14344, whole entry, looked up: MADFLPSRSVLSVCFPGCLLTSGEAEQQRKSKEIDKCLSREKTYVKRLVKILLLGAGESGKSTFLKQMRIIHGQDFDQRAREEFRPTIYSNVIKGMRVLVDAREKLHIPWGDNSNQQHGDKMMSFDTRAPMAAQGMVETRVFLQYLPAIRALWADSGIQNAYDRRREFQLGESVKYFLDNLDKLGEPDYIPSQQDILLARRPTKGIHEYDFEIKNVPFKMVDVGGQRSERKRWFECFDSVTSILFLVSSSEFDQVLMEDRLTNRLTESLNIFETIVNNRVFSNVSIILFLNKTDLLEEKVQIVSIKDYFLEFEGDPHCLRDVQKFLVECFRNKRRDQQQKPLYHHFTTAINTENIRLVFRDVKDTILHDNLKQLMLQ
UniProt P16278: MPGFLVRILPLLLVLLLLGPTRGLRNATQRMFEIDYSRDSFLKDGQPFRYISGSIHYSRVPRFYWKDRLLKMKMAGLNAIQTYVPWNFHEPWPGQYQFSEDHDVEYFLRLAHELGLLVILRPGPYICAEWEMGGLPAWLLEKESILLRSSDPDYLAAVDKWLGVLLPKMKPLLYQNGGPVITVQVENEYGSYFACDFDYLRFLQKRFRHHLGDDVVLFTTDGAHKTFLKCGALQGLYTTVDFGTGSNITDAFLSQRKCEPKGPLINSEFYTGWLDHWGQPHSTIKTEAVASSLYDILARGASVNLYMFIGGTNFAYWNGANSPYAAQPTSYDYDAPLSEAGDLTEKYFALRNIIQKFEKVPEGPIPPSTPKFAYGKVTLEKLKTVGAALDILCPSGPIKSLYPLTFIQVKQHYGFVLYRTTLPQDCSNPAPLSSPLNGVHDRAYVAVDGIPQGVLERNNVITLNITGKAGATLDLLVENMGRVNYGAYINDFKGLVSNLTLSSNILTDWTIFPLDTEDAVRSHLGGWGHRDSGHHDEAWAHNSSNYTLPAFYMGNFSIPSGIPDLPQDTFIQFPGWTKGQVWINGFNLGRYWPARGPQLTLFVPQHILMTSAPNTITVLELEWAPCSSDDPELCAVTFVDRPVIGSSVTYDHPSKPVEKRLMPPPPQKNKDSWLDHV

Columns and labels:
Assay in all cases: log2 fold change, soluble protein after heating vs DMSO (PISA); higher = thermal stabilisation; K562 lysate, 10 uM; active = over 0.2 and 3.5 SD of the protein, either way, in both replicates (recomputed)
alvocidib = compound: CN1CC[C@H](c2c(O)cc(O)c3c(=O)cc(-c4ccccc4Cl)oc23)[C@H](O)C1 [alvocidib]
Procedure, shortened: (§1)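 Dounce homogenisation of K562 pellets in PBS pH 7.4 with 1 mM MgCl2 produced a crude extract, used at 1 mg/mL protein. Exposure to 10 μM compound lasted 30 min, and aliquots were then heated for 3 min across 48°C-58°C, pooled and brought to 0.5% NP-40 at 4°C. The supernatant after 21,000xg for 90 min was quantified by TMTpro 16plex LC-MS/MS with channel sums equalised. Duplicate values are given as log-two fold change in thermal stability relative to solvent controls.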

Tubastatin A = compound: CN1CCc2c(c3ccccc3n2Cc2ccc(C(=O)NO)cc2)C1 [Tubastatin A]
Procedure, shortened: as §1

[1] = compound: CNC(=O)C1=CC=CC=C1NC2=NC(=NC=C2Cl)NC3=C(C=C(C=C3)N4CCOCC4)OC
Procedure, shortened: as §1

defactinib = compound: CNC(=O)c1ccc(Nc2ncc(C(F)(F)F)c(NCc3nccnc3N(C)S(C)(=O)=O)n2)cc1 [defactinib]
Procedure, shortened: as §1

[2] = compound: CNc1nc(-c2ccc3c(N)n[nH]c3c2)cc(N2C[C@@H](C(=O)NC3CCCCC3)CC[C@H]2C)n1
Procedure, shortened: as §1

encorafenib = compound: COC(=O)N[C@@H](C)CNc1nccc(-c2cn(C(C)C)nc2-c2cc(Cl)cc(NS(C)(=O)=O)c2F)n1 [encorafenib]
Procedure, shortened: as §1

[3] = compound: COC(=O)[C@H](CCSC)NC(=O)C1=C(C=C(C=C1)NC[C@H](CS)N)C2=CC=CC=C2
Procedure, shortened: as §1

alisertib = compound: COc1cc(Nc2ncc3c(n2)-c2ccc(Cl)cc2C(c2c(F)cccc2OC)=NC3)ccc1C(=O)O [alisertib]
Procedure, shortened: as §1

[4] = compound: COc1cc2nc(-c3cc(F)ccc3O)nc(N[C@@H]3CNC[C@H]3C(C)(C)O)c2cc1OC
Procedure, shortened: as §1

gefitinib = compound: COc1cc2ncnc(Nc3ccc(F)c(Cl)c3)c2cc1OCCCN1CCOCC1 [gefitinib]
Procedure, shortened: as §1

lapatinib = compound: CS(=O)(=O)CCNCc1ccc(-c2ccc3ncnc(Nc4ccc(OCc5cccc(F)c5)c(Cl)c4)c3c2)o1 [lapatinib]
Procedure, shortened: as §1

pictilisib = compound: CS(=O)(=O)N1CCN(Cc2cc3nc(-c4cccc5[nH]ncc45)nc(N4CCOCC4)c3s2)CC1 [pictilisib]
Procedure, shortened: as §1

crizotinib = compound: C[C@@H](Oc1cc(-c2cnn(C3CCNCC3)c2)cnc1N)c1c(Cl)ccc(F)c1Cl [crizotinib]
Procedure, shortened: as §1

[5] = compound: C[C@H](C1=CC=C(C=C1)C(=O)NC2=C3C=CNC3=NC=C2)N
Procedure, shortened: as §1

duvelisib = compound: C[C@H](Nc1ncnc2nc[nH]c12)c1cc2cccc(Cl)c2c(=O)n1-c1ccccc1 [duvelisib]
Procedure, shortened: as §1

gandotinib = compound: Cc1cc(Nc2cc(CN3CCOCC3)c3nc(C)c(Cc4ccc(Cl)cc4F)n3n2)n[nH]1 [gandotinib]
Procedure, shortened: as §1

tozasertib = compound: Cc1cc(Nc2cc(N3CCN(C)CC3)nc(Sc3ccc(NC(=O)C4CC4)cc3)n2)n[nH]1 [tozasertib]
Procedure, shortened: as §1

doramapimod = compound: Cc1ccc(-n2nc(C(C)(C)C)cc2NC(=O)Nc2ccc(OCCN3CCOCC3)c3ccccc23)cc1 [doramapimod]
Procedure, shortened: as §1

bafetinib = compound: Cc1ccc(NC(=O)c2ccc(CN3CC[C@H](N(C)C)C3)c(C(F)(F)F)c2)cc1Nc1nccc(-c2cncnc2)n1 [bafetinib]
Procedure, shortened: as §1

[6] = compound: Cc1cccc(CC(=O)N2CCc3c2ccc(-c2cn(C)c4ncnc(N)c24)c3F)n1
Procedure, shortened: as §1

| Target | log2 fold change (alvocidib) | log2 fold change (Tubastatin A) | log2 fold change [1] | log2 fold change (defactinib) | log2 fold change [2] | log2 fold change (encorafenib) | log2 fold change [3] | log2 fold change (alisertib) | log2 fold change [4] | log2 fold change (gefitinib) | log2 fold change (lapatinib) | log2 fold change (pictilisib) | log2 fold change (crizotinib) | log2 fold change [5] | log2 fold change (duvelisib) | log2 fold change (gandotinib) | log2 fold change (tozasertib) | log2 fold change (doramapimod) | log2 fold change (bafetinib) | log2 fold change [6] |
| --- | --- | --- | --- | --- | --- | --- | --- | --- | --- | --- | --- | --- | --- | --- | --- | --- | --- | --- | --- | --- |
| GNPTG (UniProt Q9UJJ9) | inactive: -0.011 | inactive: 0.102 | inactive: 0.033 | inactive: -0.051 | inactive: -0.084 | inactive: -0.1 | inactive: 0.109 | inactive: 0.093 | inactive: 0.023 | inactive: 0.053 | inactive: -0.104 | inactive: -0.078 | inactive: -0.077 | inactive: -0.031 | inactive: 0.093 | inactive: -0.038 | inactive: -0.195 | inactive: 0.017 | inactive: 0.168 | inactive: 0.026 |
| GNB1L (UniProt Q9BYB4) | inactive: -0.017 | inactive: 0.026 | inactive: -0.002 | inactive: 0.001 | inactive: -0.035 | inactive: 0.002 | inactive: -0.011 | inactive: 0.004 | inactive: -0.012 | inactive: 0.01 | inactive: 0.021 | inactive: -0.009 | inactive: -0.031 | inactive: -0.016 | inactive: -0.007 | inactive: 0.041 | inactive: -0.02 | inactive: 0.142 | inactive: -0.02 | inactive: 0.047 |
| GNB2 (UniProt P62879) | inactive: -0.019 | inactive: 0.028 | inactive: -0.039 | inactive: -0.033 | inactive: -0.042 | inactive: 0.005 | inactive: -0.003 | inactive: 0.003 | inactive: 0.037 | inactive: -0.016 | inactive: -0.008 | inactive: -0.056 | inactive: -0.042 | inactive: -0.054 | inactive: -0.005 | inactive: 0.036 | inactive: -0.034 | inactive: 0.038 | inactive: -0.051 | inactive: 0.001 |
| GPD1L (UniProt Q8N335) | inactive: 0.004 | inactive: -0.062 | inactive: 0.031 | inactive: 0.048 | inactive: -0.055 | inactive: -0.033 | inactive: 0.151 | inactive: -0.036 | inactive: 0.002 | inactive: 0.016 | inactive: 0.009 | inactive: 0 | inactive: -0.006 | inactive: -0.006 | inactive: 0.019 | inactive: -0.067 | inactive: 0.028 | inactive: -0.006 | inactive: 0.029 | inactive: 0.05 |
| GPN3 isoform 2 (UniProt Q9UHW5) | inactive: -0.077 | inactive: 0.005 | inactive: -0.069 | inactive: 0.08 | inactive: -0.014 | inactive: 0.004 | inactive: -0.158 | inactive: -0.008 | inactive: 0.004 | inactive: 0.002 | inactive: 0.011 | inactive: -0.024 | inactive: -0.015 | inactive: -0.086 | inactive: -0.072 | inactive: 0.13 | inactive: 0.019 | inactive: 0.001 | inactive: 0.024 | inactive: 0.01 |
| GNS (UniProt P15586) | inactive: -0.022 | inactive: 0.057 | inactive: 0.012 | inactive: -0.038 | inactive: 0 | inactive: 0.007 | inactive: -0.025 | inactive: 0 | inactive: 0.001 | inactive: -0.017 | inactive: 0.01 | inactive: -0.01 | inactive: 0.023 | inactive: 0.025 | inactive: 0.031 | inactive: 0.017 | inactive: 0.037 | inactive: -0.041 | inactive: 0.016 | inactive: 0.016 |
| GNAS (UniProt Q5JWF2) | inactive: 0.07 | inactive: 0.008 | inactive: -0.038 | inactive: -0.025 | inactive: -0.066 | inactive: -0.025 | inactive: -0.021 | inactive: -0.015 | inactive: 0.011 | inactive: 0.006 | inactive: -0.021 | inactive: -0.02 | inactive: 0.007 | inactive: 0.139 | inactive: 0.027 | inactive: -0.093 | inactive: 0.024 | inactive: -0.012 | inactive: 0.019 | inactive: -0.102 |
| GP1BB isoform 2 (UniProt P13224) | inactive: 0 | inactive: 0.006 | inactive: -0.033 | inactive: -0.016 | inactive: -0.016 | inactive: 0.018 | inactive: -0.029 | inactive: -0.019 | inactive: -0.044 | inactive: 0.012 | inactive: 0.008 | inactive: -0.048 | inactive: 0.007 | inactive: -0.01 | inactive: 0.051 | inactive: -0.046 | inactive: 0.109 | inactive: 0.029 | inactive: -0.013 | inactive: 0.006 |
| GON7 (UniProt Q9BXV9) | inactive: 0.081 | inactive: 0.105 | inactive: 0.082 | inactive: 0.003 | inactive: 0.065 | inactive: -0.082 | inactive: -0.112 | inactive: 0.028 | inactive: -0.051 | inactive: -0.103 | inactive: 0.076 | inactive: 0.032 | inactive: -0.024 | inactive: 0.161 | inactive: 0.013 | inactive: -0.081 | inactive: -0.004 | inactive: 0.03 | inactive: 0.086 | inactive: -0.058 |
| GOLPH3 (UniProt Q9H4A6) | inactive: 0.001 | inactive: -0.123 | inactive: 0.075 | inactive: 0.015 | inactive: -0.1 | inactive: 0.051 | active: -0.6 | inactive: -0.018 | inactive: -0.024 | inactive: -0.011 | inactive: 0.007 | inactive: -0.013 | inactive: -0.123 | inactive: -0.049 | inactive: 0.005 | inactive: 0.034 | inactive: 0.025 | inactive: 0.031 | inactive: -0.073 | inactive: 0.045 |
| GPS2 (UniProt Q13227) | inactive: -0.014 | inactive: 0.015 | inactive: -0.009 | inactive: -0.087 | inactive: -0.148 | inactive: -0.11 | inactive: 0.087 | inactive: 0.04 | inactive: -0.002 | inactive: 0.003 | inactive: 0.031 | inactive: -0.24 | inactive: 0.119 | inactive: 0.052 | inactive: -0.012 | inactive: -0.103 | inactive: 0.043 | inactive: -0.075 | inactive: -0.269 | inactive: -0.032 |
| GNAI2 (UniProt P04899) | inactive: 0.028 | inactive: -0.025 | inactive: -0.002 | inactive: 0.013 | inactive: -0.017 | inactive: 0.009 | inactive: -0.015 | inactive: 0.042 | inactive: 0.019 | inactive: -0.02 | inactive: -0.014 | inactive: -0.016 | inactive: -0.042 | inactive: 0.041 | inactive: 0.024 | inactive: -0.057 | inactive: 0.03 | inactive: 0.031 | inactive: 0.005 | inactive: -0.065 |
| GIT2 (UniProt Q14161) | inactive: 0.019 | inactive: -0.083 | inactive: -0.007 | inactive: 0 | inactive: 0.059 | inactive: 0.055 | inactive: -0.001 | inactive: 0.001 | inactive: 0.021 | inactive: 0.008 | inactive: -0.006 | inactive: 0.025 | inactive: 0.017 | inactive: -0.017 | inactive: 0.029 | inactive: -0.037 | inactive: 0.069 | inactive: 0.018 | inactive: -0.06 | inactive: 0.048 |
| GNA13 (UniProt Q14344) | inactive: -0.027 | inactive: 0.041 | inactive: -0.014 | inactive: 0.072 | inactive: -0.004 | inactive: 0.012 | inactive: -0.05 | inactive: 0.002 | inactive: 0.001 | inactive: -0.007 | inactive: -0.045 | inactive: 0.001 | inactive: -0.013 | inactive: -0.076 | inactive: -0.006 | inactive: 0.023 | inactive: 0.034 | inactive: 0.03 | inactive: -0.051 | inactive: 0.036 |
| GLB1 (UniProt P16278) | inactive: -0.042 | inactive: -0.032 | inactive: 0.005 | inactive: 0.006 | inactive: 0.055 | inactive: -0.036 | active: 0.327 | inactive: 0.022 | inactive: 0.007 | inactive: -0.015 | inactive: -0.02 | inactive: 0.001 | inactive: -0.003 | inactive: -0.017 | inactive: 0.004 | inactive: 0.012 | inactive: -0.084 | inactive: 0.016 | inactive: -0.03 | inactive: 0.008 |

Taken from above:
GNAS (UniProt Q5JWF2) | log2 fold change (gandotinib): inactive: -0.093
GON7 (UniProt Q9BXV9) | log2 fold change (crizotinib): inactive: -0.024
